Consider one molecule from paper PMC4808003.

Amino acid sequences for entries named in this document (tags omitted).
UniProt O14746: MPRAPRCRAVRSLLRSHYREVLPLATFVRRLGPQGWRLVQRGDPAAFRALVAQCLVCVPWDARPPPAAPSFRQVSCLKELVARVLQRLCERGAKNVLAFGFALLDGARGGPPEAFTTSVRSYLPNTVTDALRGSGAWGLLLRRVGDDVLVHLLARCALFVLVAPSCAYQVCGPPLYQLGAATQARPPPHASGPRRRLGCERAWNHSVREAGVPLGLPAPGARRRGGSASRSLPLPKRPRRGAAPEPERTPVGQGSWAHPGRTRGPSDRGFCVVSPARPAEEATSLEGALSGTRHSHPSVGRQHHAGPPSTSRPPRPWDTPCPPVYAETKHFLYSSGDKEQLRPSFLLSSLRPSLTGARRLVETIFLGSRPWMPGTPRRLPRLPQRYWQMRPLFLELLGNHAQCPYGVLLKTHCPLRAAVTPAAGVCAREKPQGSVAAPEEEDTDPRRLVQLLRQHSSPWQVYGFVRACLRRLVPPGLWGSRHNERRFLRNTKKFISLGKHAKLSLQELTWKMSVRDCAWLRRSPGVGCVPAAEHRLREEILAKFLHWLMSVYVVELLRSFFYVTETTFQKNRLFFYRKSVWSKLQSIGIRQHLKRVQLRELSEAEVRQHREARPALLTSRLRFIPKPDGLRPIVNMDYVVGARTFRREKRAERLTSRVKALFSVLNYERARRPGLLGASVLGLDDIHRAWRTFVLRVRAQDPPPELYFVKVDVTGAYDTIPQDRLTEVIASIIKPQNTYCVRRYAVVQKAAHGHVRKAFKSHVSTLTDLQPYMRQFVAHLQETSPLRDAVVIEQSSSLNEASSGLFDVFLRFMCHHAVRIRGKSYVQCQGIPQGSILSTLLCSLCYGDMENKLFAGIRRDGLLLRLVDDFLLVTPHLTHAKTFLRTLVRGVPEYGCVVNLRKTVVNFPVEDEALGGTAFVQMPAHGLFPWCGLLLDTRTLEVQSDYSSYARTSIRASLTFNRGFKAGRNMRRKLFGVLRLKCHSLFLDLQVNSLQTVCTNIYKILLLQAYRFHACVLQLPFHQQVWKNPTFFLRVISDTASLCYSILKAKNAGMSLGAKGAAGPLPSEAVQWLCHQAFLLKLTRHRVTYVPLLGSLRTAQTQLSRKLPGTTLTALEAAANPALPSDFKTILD

The assay addresses human telomerase reverse transcriptase (hTERT) (human (endogenous in HCT116)) (UniProt O14746). The experiment in a line: co-IP; HCT116 lysates, endogenous proteins; precleared with anti-rabbit IgG magnetic beads, IP with anti-hTERT, anti-ZEB1 or rabbit IgG for 4 h at 4°C (Universal Magnetic Co-IP Kit); western blot. A general note: A western blot detects proteins with antibodies after separation by electrophoresis.

No constants are given. Whether binding was seen depends on the method and setting. Binding seen in cells or lysates may run through a third protein. Some binding calls cover weakened binding; strength is not graded here.

B1: ZEB1 (zinc-finger E-box binding homeobox 1) (protein, UniProt P37275 1-1124)
chain: MADGPRCKRRKQANPRRNNVTNYNTVVETNSDSDDEDKLHIVEEESVTDAADCEGVPEDDLPTDQTVLPGRSSEREGNAKNCWEDDRKEGQEILGPEAQADEAGCTVKDDECESDAENEQNHDPNVEEFLQQQDTAVIFPEAPEEDQRQGTPEASGHDENGTPDAFSQLLTCPYCDRGYKRFTSLKEHIKYRHEKNEDNFSCSLCSYTFAYRTQLERHMTSHKSGRDQRHVTQSGCNRKFKCTECGKAFKYKHHLKEHLRIHSGEKPYECPNCKKRFSHSGSYSSHISSKKCISLIPVNGRPRTGLKTSQCSSPSLSASPGSPTRPQIRQKIENKPLQEQLSVNQIKTEPVDYEFKPIVVASGINCSTPLQNGVFTGGGPLQATSSPQGMVQAVVLPTVGLVSPISINLSDIQNVLKVAVDGNVIRQVLENNQANLASKEQETINASPIQQGGHSVISAISLPLVDQDGTTKIIINYSLEQPSQLQVVPQNLKKENPVATNSCKSEKLPEDLTVKSEKDKSFEGGVNDSTCLLCDDCPGDINALPELKHYDLKQPTQPPPLPAAEAEKPESSVSSATGDGNLSPSQPPLKNLLSLLKAYYALNAQPSAEELSKIADSVNLPLDVVKKWFEKMQAGQISVQSSEPSSPEPGKVNIPAKNNDQPQSANANEPQDSTVNLQSPLKMTNSPVLPVGSTTNGSRSSTPSPSPLNLSSSRNTQGYLYTAEGAQEEPQVEPLDLSLPKQQGELLERSTITSVYQNSVYSVQEEPLNLSCAKKEPQKDSCVTDSEPVVNVIPPSANPINIAIPTVTAQLPTIVAIADQNSVPCLRALAANKQTILIPQVAYTYSTTVSPAVQEPPLKVIQPNGNQDERQDTSSEGVSNVEDQNDSDSTPPKKKMRKTENGMYACDLCDKIFQKSSSLLRHKYEHTGKRPHECGICKKAFKHKHHLIEHMRLHSGEKPYQCDKCGKRFSHSGSYSQHMNHRYSYCKREAEERDSTEQEEAGPEILSNEHVGARASPSQGDSDERESLTREEDEDSEKEEEEEDKEMEELQEEKECEKPQGDEEEEEEEEEVEEEEVEEAENEGEEAKTEGLMKDDRAESQASSLGQKVGESSEQVSEEKTNEA
On to B1, for which the binding result is reported as “binds”.
